# Measured values published in PubChem BioAssay AID485318 (Broad Institute, 2010).
# Protein sequences, listed by entry. Tags and fused reporters are not part of them. Lines headed by an entry give the natural chain unless they say otherwise; changes in a name come on top.
# UniProt O15379: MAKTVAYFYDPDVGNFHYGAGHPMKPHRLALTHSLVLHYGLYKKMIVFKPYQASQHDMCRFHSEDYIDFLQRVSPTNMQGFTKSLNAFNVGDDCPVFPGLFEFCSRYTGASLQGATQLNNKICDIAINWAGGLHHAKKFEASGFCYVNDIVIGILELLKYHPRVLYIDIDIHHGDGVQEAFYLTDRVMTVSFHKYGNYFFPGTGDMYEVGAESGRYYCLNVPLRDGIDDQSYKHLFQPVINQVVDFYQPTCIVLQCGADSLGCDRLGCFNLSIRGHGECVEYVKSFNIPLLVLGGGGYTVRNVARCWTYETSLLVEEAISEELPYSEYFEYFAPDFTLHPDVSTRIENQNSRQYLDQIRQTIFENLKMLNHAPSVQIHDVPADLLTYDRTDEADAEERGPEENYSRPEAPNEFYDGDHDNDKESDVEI
# Screen size: about 1,400 compounds; fewer than 10 were called active.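 How the source made its calls: active means fluorescence-lowering compounds whose fitted half-maximal concentration is at or below ten times the highest valid dose tested; inconclusive means flat curve at 30 to 70% inhibition, or poor fit; inactive means the rest.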 This is one part of the list.
# Target: Histone deacetylase 3 (Homo sapiens) (UniProt O15379)
# Experiment: inhibition of human HDAC3 enzymatic activity – biochemical, fluorescence, cherry-picked samples, counter-screen for JMJD2C/GASC1 demethylase inhibitor project, dose response (AID 485318);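 further: enzyme preincubated with compound before substrate and trypsin were added; 0% = neutral control wells and -100% = SAHA positive control wells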
# Conditions: recombinant HDAC3, fluorogenic peptide/trypsin coupled; at 12 µM (top of the series)
row,SMILES,"activity change, negative = inhibition"
1,Cc1nc2ccc(NC(=O)c3oc4ccc(F)cc4c3C)cc2s1,inactive: -0.0502%
2,O=C(c1cc2c(s1)CCC2)N1C(=O)c2ccccc2S1(=O)=O,inactive: 0.903%
3,COc1ccc(/C=N/Nc2ncnc(Cl)c2N)cc1OC,inactive: -0.195%
4,O=C(C1CCCCC1)N1CCC(c2nc3c(nnn3Cc3c(F)cccc3Cl)c(=O)[nH]2)CC1,inactive: -0.334%
5,C[C@@H]1CN([C@H](C)CO)C(=O)c2cc(NC(=O)Cc3ccccc3)ccc2O[C@H]1CN(C)Cc1ccc(Oc2ccccc2)cc1,inactive: 0.213%
6,COc1cc(N)c(C(O)c2nccc3cc(OC)c(OC)cc23)cc1OC (centres undefined),inactive: 0.285%
7,C/C(CC(=O)Nc1cccc(Cl)c1Cl)=N\NC(=O)c1ccccc1N,inactive: -0.0786%
8,CN1CCN(c2ccc([N+](=O)[O-])cc2C(=O)N2CCOCC2)CC1,inactive: 0.646%
9,CCN(CC)c1ccc(C(=O)OCC(=O)N2CCCC2)cc1,inactive: -0.0401%
10,Cc1ccc(S(=O)(=O)N2[C@@H](c3ccc(Br)cc3)C(C(=O)O)=CC[C@H]2c2cccc(Cl)c2)cc1,inactive: 0.311%
11,CC1=C(C(=O)OCC2CCCO2)C(c2ccccc2OC(C)C)C2=C(CC(c3ccco3)CC2=O)N1 (centres undefined),inactive: -0.466%
12,CC(SCc1ccccc1)C(=O)Nc1ccccc1 (centres undefined),inactive: -0.309%
13,C/C(=N\N1CCN(c2ccccc2)CC1)c1ccncc1,inactive: 0.205%
14,COc1ccc(N=c2ssnc2Cl)cc1,inactive: 0.02%
15,CC(=O)N1C(c2ccccc2O)C[C@]2(C)CC(=O)NC12 (some centres undefined),inactive: -0.147%
16,Cc1ccc(C(O)(C(=O)NNc2ccccn2)c2ccc(C)cc2)cc1,inactive: 0.576%
17,COc1ccc(NC(=O)C2OC3OC(C)(C)OC3C3OC(C)(C)OC23)cc1 (centres undefined),inactive: 0.403%
18,COc1ccc2c(c1)CC(C1(O)C(=O)N(C)c3ccccc31)C2=O (centres undefined),inactive: 1.58%
19,COc1ccc(N2CCN(C(=O)CSc3nnc(-c4ccco4)n3C)CC2)cc1,inactive: 0.298%
20,O=C(N/N=C/c1ccccc1)c1c(O)c2ccccc2[nH]c1=O,inactive: 1.4%
21,C[C@H](CO)N1C[C@H](C)[C@@H](CN(C)CC2CCCCC2)Oc2c(NC(=O)C3CC3)cccc2C1=O,inactive: 0.699%
22,COc1cc(CN2CCN(C(=O)CC(C)C)CC2)cc(OC)c1OC,inactive: 0.151%

# An excerpt from above in order of molar mass, largest number first.
row,SMILES,"activity change, negative = inhibition"
6,COc1cc(N)c(C(O)c2nccc3cc(OC)c(OC)cc23)cc1OC (centres undefined),inactive: 0.285%
22,COc1cc(CN2CCN(C(=O)CC(C)C)CC2)cc(OC)c1OC,inactive: 0.151%
13,C/C(=N\N1CCN(c2ccccc2)CC1)c1ccncc1,inactive: 0.205%

# (next part)

row,SMILES,"activity change, negative = inhibition"
1,CC1CN(Cc2ccccc2)c2nc3c(c(=O)n(C)c(=O)n3C)n2C1 (centres undefined),inactive: 0.00628%
2,COc1cc2cnncc2cc1OC,inactive: 0.288%
3,CN(C(=O)c1ccc(NC(=O)Cc2ccc(NC(=O)C3CCN(C(=O)C4CCC4)CC3)cc2)cc1)C1CC1,inactive: 0.986%
4,NC(=O)COC(=O)Cc1coc2cc3c(cc12)CCC3,inactive: 0.0778%
5,COc1ccccc1/C=C1\SC(=S)N(CCC(=O)NNC(=O)c2ccccc2OC)C1=O,inactive: -0.838%
6,COC(=O)c1c(-c2cccs2)csc1NC(=O)CN1CCOCC1,inactive: 0.933%
7,CN(C)CCNC(=O)c1onc(CSc2ccncc2)c1C(=O)NCCN(C)C,inactive: -0.121%
8,O=C(CSc1nc(O)c(Cc2ccccc2)c(=O)[nH]1)c1ccccc1,inactive: -0.826%
9,O=c1cc(-c2ccc(O)c(O)c2)oc2c(C3O[C@H](CO)[C@@H](O)[C@H](O)[C@H]3O)c(O)cc(O)c12 (some centres undefined),inactive: 0.405%
10,CCN(Cc1nc(-c2ccccc2)no1)C(=O)c1ccco1,inactive: -0.489%
11,Cc1ccc(S(=O)(=O)NC(=O)NC(C)Cc2ccccc2)cc1 (centres undefined),inactive: -0.428%
12,C[C@H](CO)N1C[C@H](C)[C@@H](CN(C)Cc2ccc(C(=O)O)cc2)Oc2c(NC(=O)c3ccncc3)cccc2C1=O,inactive: -0.324%
13,CC1CCCC(NC(=O)COC(=O)c2ccc(N(C)C)cc2)C1C (centres undefined),inactive: 0.088%
14,CN(C)/C=C1/Nc2ccccc2C1=O,inactive: -0.292%
15,Cc1ccc(C(=O)NNC(=O)c2ccc3ccccc3c2O)cc1,inactive: 0.488%
16,COC(=O)c1cc(S(=O)(=O)N2CCN(c3ccc(F)cc3)CC2)c[nH]1,inactive: -0.547%
17,Cc1[nH]n(-c2ccccc2)c(=O)c1N=Nc1nccs1,inactive: 0.586%
18,Cc1cccn2c(=O)c(/C=N/O)c(N3CCCC3)nc12,inactive: 0.603%
19,O=[N+]([O-])c1ccc(N2CCN(S(=O)(=O)c3ccc(Cl)cc3)CC2)cc1NCc1cccnc1,inactive: -0.0715%
20,C[C@H](CO)N1C[C@H](C)[C@@H](CN(C)Cc2ccc(Cl)c(Cl)c2)Oc2c(NC(=O)c3ccncc3)cccc2C1=O,inactive: 0.697%
21,O=C(COC(=O)Cc1ccccc1F)Nc1ccc(SC(F)F)cc1,inactive: 0.00792%
22,O=C(CN1C(=O)NC2(CCCC2)C1=O)Nc1nc(-c2ccccc2)cs1,inactive: -0.418%
